Measured values reported in the supplement of paper PMC10849652.
The list shows a part of the results.

Amino acid sequences for entries named in this document (tags omitted). A change or cut given only in a name is not applied to a line headed by its entry.
UniProt Q86W74: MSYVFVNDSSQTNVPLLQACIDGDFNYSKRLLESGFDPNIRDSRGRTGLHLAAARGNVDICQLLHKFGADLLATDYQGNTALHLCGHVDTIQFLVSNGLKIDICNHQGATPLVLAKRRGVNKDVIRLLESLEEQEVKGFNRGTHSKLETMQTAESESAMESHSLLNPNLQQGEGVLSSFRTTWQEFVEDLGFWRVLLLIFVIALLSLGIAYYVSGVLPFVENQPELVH
UniProt Q9BQD7: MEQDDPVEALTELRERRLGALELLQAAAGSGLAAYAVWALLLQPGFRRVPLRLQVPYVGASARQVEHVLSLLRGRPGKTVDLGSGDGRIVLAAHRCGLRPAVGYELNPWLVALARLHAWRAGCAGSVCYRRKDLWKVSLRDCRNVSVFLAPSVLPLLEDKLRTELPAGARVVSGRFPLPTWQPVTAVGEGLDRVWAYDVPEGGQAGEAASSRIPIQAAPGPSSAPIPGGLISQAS
UniProt P10398: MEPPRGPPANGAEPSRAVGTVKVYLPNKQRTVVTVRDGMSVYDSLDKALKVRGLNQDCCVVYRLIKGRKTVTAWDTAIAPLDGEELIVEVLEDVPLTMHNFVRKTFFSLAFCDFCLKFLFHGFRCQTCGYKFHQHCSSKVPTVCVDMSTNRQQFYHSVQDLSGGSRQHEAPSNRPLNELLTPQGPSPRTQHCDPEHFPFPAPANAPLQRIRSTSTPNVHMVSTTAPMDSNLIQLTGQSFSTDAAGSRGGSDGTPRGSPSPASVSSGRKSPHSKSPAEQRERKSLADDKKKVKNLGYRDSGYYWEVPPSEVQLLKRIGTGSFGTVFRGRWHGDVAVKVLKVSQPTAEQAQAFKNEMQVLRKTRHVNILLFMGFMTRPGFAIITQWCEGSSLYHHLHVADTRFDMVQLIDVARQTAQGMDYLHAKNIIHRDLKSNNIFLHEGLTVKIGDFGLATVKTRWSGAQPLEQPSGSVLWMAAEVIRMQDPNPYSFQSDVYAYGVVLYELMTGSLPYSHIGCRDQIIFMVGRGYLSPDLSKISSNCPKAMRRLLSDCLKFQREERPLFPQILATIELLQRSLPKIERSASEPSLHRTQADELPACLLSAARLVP
UniProt Q96AK3: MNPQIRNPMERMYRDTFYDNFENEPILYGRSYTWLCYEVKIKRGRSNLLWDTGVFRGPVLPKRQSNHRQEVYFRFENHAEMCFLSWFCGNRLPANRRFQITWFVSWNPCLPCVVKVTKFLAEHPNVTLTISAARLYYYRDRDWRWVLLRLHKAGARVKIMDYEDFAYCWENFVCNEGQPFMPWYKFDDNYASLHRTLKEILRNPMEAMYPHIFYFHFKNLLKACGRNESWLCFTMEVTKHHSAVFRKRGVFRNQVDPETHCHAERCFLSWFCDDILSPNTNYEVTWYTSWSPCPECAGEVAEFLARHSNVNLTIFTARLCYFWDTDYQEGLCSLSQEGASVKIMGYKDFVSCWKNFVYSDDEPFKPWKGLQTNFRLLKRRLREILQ
UniProt P98171: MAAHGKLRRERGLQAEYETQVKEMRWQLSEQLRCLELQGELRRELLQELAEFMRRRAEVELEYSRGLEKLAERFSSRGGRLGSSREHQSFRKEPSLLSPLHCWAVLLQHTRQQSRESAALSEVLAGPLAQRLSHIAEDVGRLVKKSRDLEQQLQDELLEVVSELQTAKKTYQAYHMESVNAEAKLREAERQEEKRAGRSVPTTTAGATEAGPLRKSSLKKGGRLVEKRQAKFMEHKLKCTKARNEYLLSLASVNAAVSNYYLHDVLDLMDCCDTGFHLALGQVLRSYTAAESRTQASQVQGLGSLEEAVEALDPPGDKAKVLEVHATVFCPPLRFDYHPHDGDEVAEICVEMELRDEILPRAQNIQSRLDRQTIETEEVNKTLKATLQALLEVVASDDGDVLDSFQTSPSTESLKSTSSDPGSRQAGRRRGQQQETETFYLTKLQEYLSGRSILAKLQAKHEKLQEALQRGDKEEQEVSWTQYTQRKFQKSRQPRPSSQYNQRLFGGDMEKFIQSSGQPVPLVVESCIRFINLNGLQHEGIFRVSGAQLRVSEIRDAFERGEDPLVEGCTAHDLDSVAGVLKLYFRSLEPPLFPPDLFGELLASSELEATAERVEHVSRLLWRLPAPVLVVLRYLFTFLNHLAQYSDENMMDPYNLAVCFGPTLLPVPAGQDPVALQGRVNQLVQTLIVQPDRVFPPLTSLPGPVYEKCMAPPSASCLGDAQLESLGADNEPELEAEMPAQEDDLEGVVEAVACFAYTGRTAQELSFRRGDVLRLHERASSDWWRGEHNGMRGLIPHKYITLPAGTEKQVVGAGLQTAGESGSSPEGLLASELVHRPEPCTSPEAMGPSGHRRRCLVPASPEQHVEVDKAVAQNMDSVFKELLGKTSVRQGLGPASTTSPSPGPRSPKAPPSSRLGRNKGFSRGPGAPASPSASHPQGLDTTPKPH
UniProt Q9Y587: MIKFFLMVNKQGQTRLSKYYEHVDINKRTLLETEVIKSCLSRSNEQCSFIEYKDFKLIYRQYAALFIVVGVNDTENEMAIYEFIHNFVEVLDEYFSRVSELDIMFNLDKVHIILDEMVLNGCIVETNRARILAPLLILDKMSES
UniProt Q01484: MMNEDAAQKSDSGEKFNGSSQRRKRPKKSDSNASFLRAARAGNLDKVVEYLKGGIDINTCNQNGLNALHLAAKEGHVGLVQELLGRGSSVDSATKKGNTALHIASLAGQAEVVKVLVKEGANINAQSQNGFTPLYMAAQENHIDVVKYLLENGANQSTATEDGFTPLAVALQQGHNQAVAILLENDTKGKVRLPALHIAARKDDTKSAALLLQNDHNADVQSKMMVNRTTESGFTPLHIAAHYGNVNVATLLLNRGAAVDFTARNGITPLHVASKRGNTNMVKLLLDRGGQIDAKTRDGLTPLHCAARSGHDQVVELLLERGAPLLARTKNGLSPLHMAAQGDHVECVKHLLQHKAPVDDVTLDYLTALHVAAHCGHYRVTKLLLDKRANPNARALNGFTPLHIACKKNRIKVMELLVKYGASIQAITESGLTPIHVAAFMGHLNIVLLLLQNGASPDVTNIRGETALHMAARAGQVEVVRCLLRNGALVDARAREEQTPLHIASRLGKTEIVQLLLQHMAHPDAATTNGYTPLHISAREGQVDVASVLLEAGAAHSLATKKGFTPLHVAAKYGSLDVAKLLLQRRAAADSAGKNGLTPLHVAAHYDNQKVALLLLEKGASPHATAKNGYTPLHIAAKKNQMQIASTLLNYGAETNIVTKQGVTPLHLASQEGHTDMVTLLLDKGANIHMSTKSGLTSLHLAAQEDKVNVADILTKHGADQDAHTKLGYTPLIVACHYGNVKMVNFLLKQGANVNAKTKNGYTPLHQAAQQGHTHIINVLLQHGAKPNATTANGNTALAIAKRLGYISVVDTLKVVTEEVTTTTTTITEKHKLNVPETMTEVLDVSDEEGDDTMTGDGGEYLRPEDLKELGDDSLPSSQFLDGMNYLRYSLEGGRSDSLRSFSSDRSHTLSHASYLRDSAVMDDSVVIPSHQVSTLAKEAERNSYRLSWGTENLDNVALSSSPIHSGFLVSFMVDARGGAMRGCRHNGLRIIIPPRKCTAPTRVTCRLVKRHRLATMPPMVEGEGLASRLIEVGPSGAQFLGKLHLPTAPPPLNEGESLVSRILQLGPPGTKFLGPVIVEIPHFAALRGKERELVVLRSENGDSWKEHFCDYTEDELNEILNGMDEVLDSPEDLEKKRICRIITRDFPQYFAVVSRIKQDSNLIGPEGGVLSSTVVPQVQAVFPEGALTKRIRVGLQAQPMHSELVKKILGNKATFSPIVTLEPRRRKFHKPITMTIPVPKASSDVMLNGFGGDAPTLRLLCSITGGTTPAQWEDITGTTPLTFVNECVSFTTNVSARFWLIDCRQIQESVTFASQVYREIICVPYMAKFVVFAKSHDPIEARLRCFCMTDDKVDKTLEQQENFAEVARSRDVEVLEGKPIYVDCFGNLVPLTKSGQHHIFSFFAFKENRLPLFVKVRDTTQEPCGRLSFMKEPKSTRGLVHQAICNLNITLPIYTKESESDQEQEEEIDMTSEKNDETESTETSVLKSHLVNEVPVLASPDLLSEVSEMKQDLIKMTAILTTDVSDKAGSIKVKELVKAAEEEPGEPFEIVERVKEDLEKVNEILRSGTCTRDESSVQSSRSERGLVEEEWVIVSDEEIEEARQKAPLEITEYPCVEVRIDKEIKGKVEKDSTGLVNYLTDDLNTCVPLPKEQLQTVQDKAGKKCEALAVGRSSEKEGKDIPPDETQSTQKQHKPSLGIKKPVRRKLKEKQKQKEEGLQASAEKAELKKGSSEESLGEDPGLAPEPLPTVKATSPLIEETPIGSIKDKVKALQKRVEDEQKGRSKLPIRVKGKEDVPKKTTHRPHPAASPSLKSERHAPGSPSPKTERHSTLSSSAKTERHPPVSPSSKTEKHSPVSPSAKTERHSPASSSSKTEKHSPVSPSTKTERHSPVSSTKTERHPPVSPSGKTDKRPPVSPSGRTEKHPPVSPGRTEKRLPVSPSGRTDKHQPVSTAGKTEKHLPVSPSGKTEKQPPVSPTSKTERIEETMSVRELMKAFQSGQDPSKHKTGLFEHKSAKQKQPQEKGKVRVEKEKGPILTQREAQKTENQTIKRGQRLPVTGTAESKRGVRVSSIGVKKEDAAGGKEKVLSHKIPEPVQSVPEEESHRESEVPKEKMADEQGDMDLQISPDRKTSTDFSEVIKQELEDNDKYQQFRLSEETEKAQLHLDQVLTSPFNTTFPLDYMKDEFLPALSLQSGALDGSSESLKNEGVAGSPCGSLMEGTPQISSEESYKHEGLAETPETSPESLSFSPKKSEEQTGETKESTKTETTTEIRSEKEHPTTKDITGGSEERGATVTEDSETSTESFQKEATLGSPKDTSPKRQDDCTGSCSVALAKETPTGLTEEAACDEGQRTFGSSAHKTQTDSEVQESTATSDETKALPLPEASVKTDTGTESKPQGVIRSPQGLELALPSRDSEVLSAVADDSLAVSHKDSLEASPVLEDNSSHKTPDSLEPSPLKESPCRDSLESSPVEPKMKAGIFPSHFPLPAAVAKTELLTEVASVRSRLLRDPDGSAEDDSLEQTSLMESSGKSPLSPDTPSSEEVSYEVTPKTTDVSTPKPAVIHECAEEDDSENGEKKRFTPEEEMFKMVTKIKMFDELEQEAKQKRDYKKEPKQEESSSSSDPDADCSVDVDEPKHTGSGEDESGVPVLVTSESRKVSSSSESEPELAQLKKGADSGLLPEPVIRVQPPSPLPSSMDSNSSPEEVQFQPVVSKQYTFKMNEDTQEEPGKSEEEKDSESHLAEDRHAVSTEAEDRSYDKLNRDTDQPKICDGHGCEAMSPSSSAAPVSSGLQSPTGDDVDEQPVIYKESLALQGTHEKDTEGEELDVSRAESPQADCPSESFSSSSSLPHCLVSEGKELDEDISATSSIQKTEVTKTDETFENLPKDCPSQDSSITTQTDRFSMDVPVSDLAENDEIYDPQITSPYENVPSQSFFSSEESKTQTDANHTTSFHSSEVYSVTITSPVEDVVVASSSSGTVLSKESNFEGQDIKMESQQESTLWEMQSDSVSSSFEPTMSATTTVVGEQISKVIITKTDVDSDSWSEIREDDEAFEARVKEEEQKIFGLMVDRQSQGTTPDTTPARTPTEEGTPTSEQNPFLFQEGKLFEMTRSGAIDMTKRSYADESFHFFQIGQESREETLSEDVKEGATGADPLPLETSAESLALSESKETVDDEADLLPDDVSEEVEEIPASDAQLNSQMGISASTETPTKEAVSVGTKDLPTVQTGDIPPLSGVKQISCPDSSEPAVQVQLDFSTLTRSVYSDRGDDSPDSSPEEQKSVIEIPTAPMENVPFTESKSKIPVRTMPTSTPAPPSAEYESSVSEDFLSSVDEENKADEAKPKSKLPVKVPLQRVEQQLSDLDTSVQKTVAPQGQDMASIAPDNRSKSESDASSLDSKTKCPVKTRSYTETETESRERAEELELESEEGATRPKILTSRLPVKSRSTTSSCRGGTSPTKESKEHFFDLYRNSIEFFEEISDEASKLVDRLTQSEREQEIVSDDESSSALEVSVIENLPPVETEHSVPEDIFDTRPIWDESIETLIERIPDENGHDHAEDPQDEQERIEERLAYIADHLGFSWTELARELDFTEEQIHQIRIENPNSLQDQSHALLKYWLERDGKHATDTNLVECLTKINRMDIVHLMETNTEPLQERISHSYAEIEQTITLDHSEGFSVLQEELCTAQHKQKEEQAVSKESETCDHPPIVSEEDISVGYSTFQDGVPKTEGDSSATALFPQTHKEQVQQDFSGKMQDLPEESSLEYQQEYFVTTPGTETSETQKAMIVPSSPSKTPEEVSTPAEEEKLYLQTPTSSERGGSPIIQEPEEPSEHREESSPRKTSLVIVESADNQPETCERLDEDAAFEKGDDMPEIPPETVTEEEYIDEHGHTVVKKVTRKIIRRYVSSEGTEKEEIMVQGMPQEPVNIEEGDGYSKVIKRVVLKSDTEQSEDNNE

Columns and labels:
Test in all cases: log2 fold change, soluble protein after heating vs DMSO (PISA); higher = thermal stabilisation; K562 cells, 10 uM, 30 min; active = over 0.2 and 3.5 SD of the protein, either way, in both replicates (recomputed)
[1] = compound: CC1=C(C=C(C=C1)NC(=O)C2=CC(=CC=C2)C(C)(C)C#N)NC3=CC4=C(C=C3)N=CN(C4=O)C
In short: (§1)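 For each measurement, 10 μM compound was applied for 30 min to K562 cells at 2×10^6 cells/mL. Aliquots were heated for 3 min across 48°C-58°C, pooled, and extracted in PBS with 0.5% NP-40 at 4°C; the supernatant after 21,000xg for 90 min was soluble protein. This was quantified by TMTpro 16plex LC-MS/MS with channel sums equalised, and thermal stability was reported relative to control samples from duplicates, on a log2 fold-change scale.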

[2] = compound: CC1=C(C=C(C=C1)NC(=O)C2=CC(=CC=C2)N(C)C)NC(=O)C3=CC=C(C=C3)O
In short: as §1

[3] = compound: CC1=CC=C(C=C1)SC2=C3C=C(SC3=CN=C2)C(=O)N
In short: as §1

[4] = compound: CCCCN(Cc1ccc(C(=O)NO)cc1)C(=O)Nc1ccccc1 [Nexturastat A]
In short: as §1

[5] = compound: CCCS(=O)(=O)Nc1ccc(F)c(C(=O)c2c[nH]c3ncc(-c4ccc(Cl)cc4)cc23)c1F [vemurafenib]
In short: as §1

[6] = compound: CCCS(=O)(=O)Nc1ccc(F)c(C(=O)c2c[nH]c3ncc(Cl)cc23)c1F
In short: as §1

[7] = compound: CCCc1cc(C)[nH]c(=O)c1CNC(=O)c1cc(-c2ccnc(N3CCN(C)CC3)c2)cc2c1cnn2C(C)C
In short: as §1

[8] = compound: CCN(CC)Cc1ccc2cc(COC(=O)Nc3ccc(C(=O)NO)cc3)ccc2c1 [givinostat]
In short: as §1

[9] = compound: CCN(CCCOc1ccc2c(Nc3cc(CC(=O)Nc4cccc(F)c4)[nH]n3)ncnc2c1)CCOP(=O)(O)O [barasertib]
In short: as §1

[10] = compound: CC[C@@H]1C(=O)N(C)c2cnc(Nc3ccc(C(=O)NC4CCN(C)CC4)cc3OC)nc2N1C1CCCC1
In short: as §1

[11] = compound: CC[C@@H]1C(=O)N(C)c2cnc(Nc3ccc(C(=O)N[C@H]4CC[C@H](N5CCN(CC6CC6)CC5)CC4)cc3OC)nc2N1C(C)C [volasertib]
In short: as §1

[12] = compound: CC[C@H](C)N1C=C(C2=C(C=C(C=C21)C3=CN=C(C=C3)N4CCNCC4)C(=O)NCC5=C(C=C(NC5=O)C)C)C
In short: as §1

[13] = compound: CC[C@H](C)[C@@H](C(=O)N[C@@H]([C@@H](C)O)C(=O)N[C@@H](CC(C)C)C(=O)[C@]1(CO1)C)NC(=O)[C@H]([C@@H](C)CC)N(C)C(=O)C [epoxomicin]
In short: as §1

[14] = compound: CCn1c(C(=O)N(C2CC2)C2CC2)cc2c3c(ncn3C)c(Nc3cc(C)n(C)n3)nc21
In short: as §1

[15] = compound: CCn1cc(-c2ccnc3[nH]c(-c4cccc(CN(C)C)c4)cc23)c(-c2ccc(NC(=O)N(C)C)cc2)n1
In short: as §1

[16] = compound: CN(C)CC(=O)Nc1ccc2[nH]c(=O)c3ccccc3c2c1
In short: as §1

[17] = compound: CN(CCOC1=CC=C(C=C1)C[C@H]2C(=O)NC(=O)S2)C3=CC=CC=N3 (racemic) [rosiglitazone]
In short: as §1

[18] = compound: CN1C2=C(C3=C1C(=O)N(N=C3)CC4=CC(=CC=C4)N)SC(=C2)S(=O)C
In short: as §1

[19] = compound: CN1CCC(CNc2ccc3ncc(-c4cccc(OC(F)(F)F)c4)n3n2)CC1
In short: as §1

[20] = compound: CC1=NC(=CC=C1)C2=C(N=C(N2)C(C)(C)C)C3=CC4=NC=CN=C4C=C3
In short: as §1

Row | Target | log2 fold change [1] | log2 fold change [2] | log2 fold change [3] | log2 fold change [4] | log2 fold change [5] | log2 fold change [6] | log2 fold change [7] | log2 fold change [8] | log2 fold change [9] | log2 fold change [10] | log2 fold change [11] | log2 fold change [12] | log2 fold change [13] | log2 fold change [14] | log2 fold change [15] | log2 fold change [16] | log2 fold change [17] | log2 fold change [18] | log2 fold change [19] | log2 fold change [20]
1 | ANKRD46 (UniProt Q86W74) | inactive: 0.054 | inactive: 0.038 | inactive: -0.037 | inactive: -0.095 | inactive: -0.015 | inactive: 0.055 | inactive: -0.011 | inactive: 0.038 | inactive: 0.015 | inactive: 0.133 | inactive: -0.096 | inactive: 0.069 | inactive: 0.153 | inactive: -0.232 | inactive: 0.06 | inactive: -0.036 | inactive: 0.049 | inactive: -0.021 | inactive: 0.12 | 
2 | ANKZF1 (UniProt Q9H8Y5) | inactive: 0.011 | inactive: 0 | inactive: -0.055 | inactive: 0.399 | inactive: -0.011 | inactive: -0.042 | inactive: 0.132 | inactive: 0.195 | inactive: 0.04 | inactive: -0.063 | inactive: -0.055 | inactive: 0.036 | inactive: -0.001 |  | inactive: 0.004 | inactive: -0.076 |  | inactive: 0.214 | inactive: 0.066 | inactive: -0.059
3 | ANPEP (UniProt P15144) | inactive: -0.046 | inactive: 0.003 | inactive: -0.163 |  |  | inactive: -0.024 | inactive: -0.028 | inactive: -0.008 |  |  | inactive: -0.051 | inactive: 0.087 |  | inactive: 0.102 | inactive: -0.063 |  |  | inactive: -0.144 | inactive: -0.069 | inactive: 0.004
4 | ARHGEF7 isoform 5 (UniProt Q14155) | inactive: 0.033 | inactive: -0.053 | inactive: 0.024 | inactive: 0.291 | inactive: -0.004 | inactive: 0.005 | inactive: 0.097 | inactive: 0.081 | inactive: 0.099 |  | inactive: -0.349 | inactive: -0.009 | inactive: -0.028 | inactive: -0.064 | inactive: 0.08 | inactive: 0.039 | inactive: -0.02 | inactive: 0.068 | inactive: -0.016 | inactive: 0.02
5 | AP4E1 (UniProt Q9UPM8) | inactive: -0.014 | inactive: 0.001 | inactive: -0.05 | inactive: 0.207 | inactive: 0.022 | inactive: 0.117 | inactive: -0.067 | inactive: 0.033 | inactive: 0.407 |  | inactive: -0.273 | inactive: 0.095 | inactive: -0.024 | inactive: 0.008 | inactive: -0.012 | inactive: -0.01 | inactive: 0.128 | inactive: 0.081 | inactive: -0.364 | inactive: 0.086
6 | APOBEC3G (UniProt Q9HC16) | inactive: -0.019 | inactive: 0.069 | inactive: -0.064 | inactive: 0.172 | inactive: 0.069 | inactive: -0.083 | inactive: 0.051 | inactive: 0.129 | inactive: 0.019 | inactive: 0.267 | inactive: -0.008 | inactive: 0.051 | inactive: -0.146 |  |  | inactive: -0.148 |  | inactive: 0.025 |  | inactive: -0.014
7 | ANTKMT (UniProt Q9BQD7) | inactive: -0.035 | inactive: 0.182 |  | inactive: -0.115 | inactive: -0.059 |  |  | inactive: -0.078 | inactive: 0.019 | inactive: -0.294 |  | inactive: 0.052 | inactive: -0.239 | inactive: -0.087 | inactive: -0.282 | inactive: 0.211 | inactive: -0.141 | inactive: -0.079 | inactive: 0.024 | inactive: 0.126
8 | AP2B1 isoform 2 (UniProt P63010) | inactive: 0.016 | inactive: 0.018 | inactive: 0.021 | inactive: 0.033 | inactive: 0.031 | inactive: 0.039 | inactive: -0.021 | inactive: 0.015 | inactive: -0.013 | inactive: 0.065 | inactive: -0.064 | inactive: -0.001 | inactive: -0.004 |  | inactive: -0.021 | inactive: -0.007 |  | inactive: -0.016 | inactive: 0.045 | inactive: 0.018
9 | APOH (UniProt P02749) | inactive: -0.346 | inactive: 0.265 | inactive: 0.055 |  | inactive: 0.225 | inactive: -0.063 | inactive: -0.611 | inactive: 0.046 | inactive: -0.203 | inactive: -0.397 | inactive: -0.443 | inactive: -0.167 |  |  | inactive: 0.078 | inactive: -0.141 |  | inactive: 0.48 | inactive: 0.077 | inactive: 0.192
10 | ARHGAP6 (UniProt O43182) | inactive: -0.121 | inactive: 0.041 |  | inactive: 0.341 |  |  | inactive: 0.15 |  |  | inactive: -0.049 |  | inactive: 0.123 | inactive: -0.115 |  |  |  |  | inactive: 0.274 |  | inactive: -0.327
11 | ARAF (UniProt P10398) | inactive: 0.063 | inactive: -0.049 | inactive: -0.069 | inactive: 0.003 | inactive: 0.064 | inactive: 0.123 | inactive: 0.019 | inactive: 0.029 | inactive: 0.074 | inactive: 0.053 | inactive: 0.311 | inactive: 0.129 | inactive: 0.013 |  | inactive: -0.002 | inactive: 0.054 |  | inactive: -0.025 | inactive: -0.132 | inactive: -0.007
12 | APOBEC3D (UniProt Q96AK3) | inactive: 0.022 | inactive: 0.01 | inactive: -0.05 | inactive: 0.177 | inactive: -0.188 | inactive: 0.057 | inactive: 0.11 | inactive: 0.06 | inactive: -0.013 | inactive: 0.023 | inactive: 0.259 |  | inactive: -0.189 | inactive: 0.002 |  | inactive: -0.118 | inactive: -0.118 | inactive: 0.266 |  | inactive: 0
13 | ARHGAP4 isoform 2 (UniProt P98171) | inactive: -0.14 | inactive: 0.039 | inactive: -0.08 |  | inactive: 0.047 | inactive: -0.049 | inactive: -0.194 | inactive: 0.034 | inactive: -0.466 | inactive: -0.044 | inactive: -0.112 | inactive: 0.048 |  |  |  | inactive: 0.036 |  | active: 0.757 |  | 
14 | AP4S1 (UniProt Q9Y587) | inactive: 0.033 |  | inactive: -0.017 | inactive: -0.097 | inactive: 0.107 | inactive: 0.02 | inactive: 0.102 | inactive: 0 | inactive: -0.008 | inactive: -0.117 | inactive: -0.321 | inactive: 0.059 | inactive: -0.006 |  |  | inactive: 0.027 |  | inactive: 0.078 |  | inactive: -0.007
15 | APAF1 (UniProt O14727) | inactive: 0.023 | inactive: 0.014 | inactive: -0.003 | inactive: 0.056 | inactive: -0.006 | inactive: -0.068 | inactive: -0.1 | active: 0.395 |  | inactive: -0.123 | inactive: -0.076 | inactive: 0.187 | inactive: -0.045 |  | inactive: -0.009 | inactive: 0.037 |  | inactive: 0.148 | inactive: -0.088 | inactive: -0.125
16 | ANGPTL3 (UniProt Q9Y5C1) | inactive: -0.038 | inactive: -0.105 | inactive: -0.034 | inactive: -0.004 | inactive: 0.158 | inactive: -0.235 | inactive: -0.141 | inactive: -0.154 | inactive: 0.012 | inactive: 0.052 | inactive: 0.211 |  | inactive: -0.193 | inactive: 0.284 |  | inactive: -0.1 | inactive: -0.144 | inactive: 0.138 |  | inactive: 0.145
17 | APP (UniProt P05067) | inactive: 0 | inactive: -0.051 | inactive: -0.086 | inactive: 0.106 |  | inactive: 0.077 | inactive: -0.033 |  |  | inactive: -0.139 | inactive: -0.156 | inactive: -0.067 | inactive: 0.077 | inactive: 0.094 |  |  |  |  |  | 
18 | ANK2 (UniProt Q01484) | inactive: -0.11 | inactive: -0.031 | inactive: 0.019 |  | inactive: -0.026 | inactive: 0.012 | inactive: 0.053 | inactive: -0.047 | inactive: 0.031 | inactive: 0.049 | inactive: -0.071 | inactive: -0.003 |  |  | inactive: 0.122 | inactive: -0.018 |  | inactive: -0.128 | inactive: -0.223 | inactive: 0.026
19 | ARHGAP22 isoform 2 (UniProt Q7Z5H3) | inactive: -0.141 | inactive: -0.093 | inactive: 0.043 |  | inactive: 0.058 | inactive: -0.103 |  |  |  | inactive: 0.062 | inactive: -0.126 |  |  |  | inactive: -0.179 | inactive: -0.004 |  |  | inactive: -0.039 | 
20 | AP4B1 (UniProt Q9Y6B7) | inactive: 0.079 |  |  |  | inactive: 0.07 |  |  | inactive: 0.027 | inactive: 0.035 | inactive: -0.119 |  | inactive: 0.073 |  | inactive: 0.046 | inactive: 0.071 | inactive: 0.046 | inactive: -0.062 | inactive: 0.141 | inactive: -0.178 | inactive: 0.211

Some of the entries so far, as comma-separated lines.
Row,Target,log2 fold change [1],log2 fold change [2],log2 fold change [3],log2 fold change [4],log2 fold change [5],log2 fold change [6],log2 fold change [7],log2 fold change [8],log2 fold change [9],log2 fold change [10],log2 fold change [11],log2 fold change [12],log2 fold change [13],log2 fold change [14],log2 fold change [15],log2 fold change [16],log2 fold change [17],log2 fold change [18],log2 fold change [19],log2 fold change [20]
9,APOH (UniProt P02749),inactive: -0.346,inactive: 0.265,inactive: 0.055,,inactive: 0.225,inactive: -0.063,inactive: -0.611,inactive: 0.046,inactive: -0.203,inactive: -0.397,inactive: -0.443,inactive: -0.167,,,inactive: 0.078,inactive: -0.141,,inactive: 0.48,inactive: 0.077,inactive: 0.192
10,ARHGAP6 (UniProt O43182),inactive: -0.121,inactive: 0.041,,inactive: 0.341,,,inactive: 0.15,,,inactive: -0.049,,inactive: 0.123,inactive: -0.115,,,,,inactive: 0.274,,inactive: -0.327
